# Reference: PubChem BioAssay AID652015 (National Center for Advancing Translational Sciences (NCATS), 2013)
# Chains of the proteins cited; added tags and fusions are not shown.
# UniProt P27652, whole entry, looked up: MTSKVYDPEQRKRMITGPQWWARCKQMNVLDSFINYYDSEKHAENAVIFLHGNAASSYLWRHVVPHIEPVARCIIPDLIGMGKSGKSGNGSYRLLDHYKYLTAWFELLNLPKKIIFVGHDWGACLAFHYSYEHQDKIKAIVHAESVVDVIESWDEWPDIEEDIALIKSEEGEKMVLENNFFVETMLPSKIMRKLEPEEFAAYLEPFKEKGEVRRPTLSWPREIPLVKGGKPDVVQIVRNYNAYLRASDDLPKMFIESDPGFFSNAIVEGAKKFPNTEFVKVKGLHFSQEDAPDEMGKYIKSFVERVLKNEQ
# Inconclusive means that the source gave no clear call. Such entries were picked first, then a sample of the others. Potencies of inconclusive entries are doubtful fits and often do not repeat. Calls of active or inactive are those of the source. Calls follow the shape of the dose curve; as a rule, active = well fitted inhibition curve with a large enough effect; inconclusive = small, poorly fitted or top-dose-only effect; inactive = no such curve, though single readings can be large or run the other way.
# Target: Coelenterazine h 2-monooxygenase (Renilla reniformis) (UniProt P27652)
# Assay: qHTS Assay for Inhibitors of Sea Pansy Luciferase from the GSK Published Protein Kinase Inhibitor Set
# How it was run: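 qHTS (roughly 60 uM down to 300 pM) against 1 nM Renilla luciferase, substrate coelenterazine h 5 uM, Tris acetate pH 7.5 buffer with NaCl, Tween-20 and BSA. Luminescence measured after an average 2 min incubation.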
# Potency is read from the fitted curve at half-maximal effect.
row,Compound,Potency
1,Oc1cccc(-c2nc(-c3ccccc3)[nH]c2-c2ccncc2)c1,"inconclusive: 23.1 µM [inhibitor, partial curve]"
2,CCN1CCC(CC(=O)Nc2n[nH]c3nc(-c4cccs4)c(Br)cc23)CC1,"inconclusive: 29.1 µM [inhibitor, single point]"
3,CN1CCN(CCCNc2nc3ccc(Oc4ccc(NC(=O)Nc5cc(C(F)(F)F)ccc5F)cc4)cc3[nH]2)CC1,active: 23.1 µM
4,COc1ccc2cc(-c3c(-c4ccncc4)nc(-c4ccc(S(C)=O)cc4C)n3C)ccc2c1 (stereo not drawn),"inconclusive: 41.1 µM [inhibitor, partial curve, poor fit]"
5,O=C1Nc2ccc(-c3cccnc3)cc2C1=Cc1cc(Br)c(O)c(Br)c1,"inconclusive: 18.3 µM [inhibitor, partial curve]"
6,O=C(Nc1n[nH]c2nc(-c3ccco3)ccc12)C1CC1,inactive
7,NS(=O)(=O)c1ccc(-c2cc3ccncc3cc2OCc2ccccc2)cc1,"inconclusive: 5.8 µM [inhibitor, partial curve, poor fit]"
8,CN(C)CCOc1ccc(-c2nc(-c3ccc4c(c3)CCC4=NO)c(-c3ccncc3)[nH]2)cc1,"inconclusive: 29.1 µM [inhibitor, partial curve]"
9,CCCN1CCC=C(c2ccc(Nc3nc(Nc4ccccc4C(N)=O)c4cc[nH]c4n3)c(C)c2)C1,"inconclusive: 46.1 µM [inhibitor, partial curve, poor fit]"
10,FC(F)(F)c1ccc(-c2nn3ncccc3c2-c2ccnc(Nc3ccc4c(c3)OCCO4)n2)cc1,inactive
11,COc1ccc2ncnc(Nc3ccc(OCc4ccccc4)cc3)c2c1,inconclusive: 0.0007 µM [inhibitor]
12,O=S(=O)(CCOCc1ccc(-c2ccc3ncnc(Nc4ccc(OCc5cccc(F)c5)c(Cl)c4)c3c2)o1)c1ccccc1,inactive
13,O=C1Nc2ccccc2C1=C1CCc2cc(O)ccc21,"inconclusive: 20.6 µM [inhibitor, partial curve]"
14,Cc1ccc(C(=O)NC2CC2)cc1-c1ccc2[nH]ncc2c1,"inconclusive: 20.6 µM [inhibitor, partial curve]"
15,OCc1ccc(-c2nc(-c3ccc4c(c3)OCO4)c(-c3ccccn3)[nH]2)cc1,"inconclusive: 41.1 µM [inhibitor, partial curve, poor fit]"
16,COc1ccc2ncn(-c3cc(OC(C)c4ccccc4C(F)(F)F)c(C(N)=O)s3)c2c1 (stereo not drawn),"inconclusive: 20.6 µM [inhibitor, partial curve, poor fit]"
17,O=C(NCC1CC1)c1ccc(-c2cccc(C(=O)NC3CC3)c2)cc1,"inconclusive: 7.3 µM [inhibitor, partial curve, poor fit]"
18,NS(=O)(=O)c1ccc(N=Nc2c(O)[nH]c3ccc(Cl)cc23)cc1,"inconclusive: 36.6 µM [inhibitor, partial curve, poor fit]"
19,NCc1ccc(-n2c(-c3nonc3N)nc3cnccc32)cc1,"inconclusive: 41.1 µM [inhibitor, single point]"

# 3 compounds from above, arranged by formula weight, low to high.
row,Compound,Potency
11,COc1ccc2ncnc(Nc3ccc(OCc4ccccc4)cc3)c2c1,inconclusive: 0.0007 µM [inhibitor]
8,CN(C)CCOc1ccc(-c2nc(-c3ccc4c(c3)CCC4=NO)c(-c3ccncc3)[nH]2)cc1,"inconclusive: 29.1 µM [inhibitor, partial curve]"
12,O=S(=O)(CCOCc1ccc(-c2ccc3ncnc(Nc4ccc(OCc5cccc(F)c5)c(Cl)c4)c3c2)o1)c1ccccc1,inactive

# The list goes on.

row,Compound,Potency
1,CCCN1CCC(c2ccc(Nc3nc(Nc4cc(F)ccc4C(N)=O)c4cc[nH]c4n3)c(OC)c2)CC1,"inconclusive: 18.3 µM [inhibitor, partial curve]"
2,Cc1nnc(-c2cccc(-c3ccc(C(=O)NCC4CC4)cc3)c2)o1,"inconclusive: 36.6 µM [inhibitor, single point]"
3,COc1ccc(C2=C(N3CCc4ccccc43)C(=O)NC2=O)cc1,"inconclusive: 20.6 µM [inhibitor, partial curve]"
4,COc1cc2c(cc1Nc1nc(Nc3cccc(F)c3C(N)=O)c3cc[nH]c3n1)N(C(=O)CN1CCN(C(C)C)CC1)CC2,"inconclusive: 36.6 µM [inhibitor, partial curve, poor fit]"
5,CS(=O)(=O)Nc1ccc(N=Cc2c(O)[nH]c3ccccc23)cc1,"inconclusive: 23.1 µM [inhibitor, partial curve]"
6,COC(=O)Nc1nc2ccc(Oc3ccc(NC(=O)Nc4cccc(Br)c4)cc3)cc2[nH]1,inactive
7,COc1cc2ncn(-c3cc(OCc4cccs4)c(C(N)=O)s3)c2cc1OC,"inconclusive: 9.19 µM [inhibitor, partial curve, poor fit]"
8,FC(F)(F)c1cccc(Nc2nccc(-c3cnn4nc(-c5ccccc5)ccc34)n2)c1,inactive
9,COc1cc2ncn(-c3cc(OCc4ccccc4C(F)(F)F)c(C(=O)N(C)C)s3)c2cc1OC,"inconclusive: 23.1 µM [inhibitor, partial curve, poor fit]"
10,CCN(CC)Cc1ccc(Nc2nccc(-c3cnn4ncccc34)n2)cc1,"inconclusive: 20.6 µM [inhibitor, partial curve]"
11,COC(=O)Nc1nc2ccc(Oc3ccc(NC(=O)Nc4cccc(Cl)c4)cc3)cc2[nH]1,inactive
12,NS(=O)(=O)c1cccc(-c2cc3ccncc3cc2OCc2ccccc2)c1,"inconclusive: 25.9 µM [inhibitor, partial curve]"
13,COc1ccc2nc3c4nc5ccc(OC)cc5c4c4c(=O)[nH]c(=O)c4c3c2c1,"inconclusive: 25.9 µM [inhibitor, partial curve]"
14,Fc1ccc(-c2ncn(C3CCNCC3)c2-c2ccnc(Oc3ccc(Oc4ccccc4)cc3)n2)cc1,"inconclusive: 20.6 µM [inhibitor, partial curve]"
15,NCc1ccc(-c2nc(-c3ccc(Cl)c(O)c3)c(-c3ccncc3)[nH]2)cc1,inactive
16,NC(=O)c1sc(-n2cnc3ccccc32)cc1OCc1ccccc1Br,"inconclusive: 25.9 µM [inhibitor, partial curve]"
17,COc1cc2c(cc1Nc1nc(Nc3ccsc3C(N)=O)c3cc[nH]c3n1)N(C(=O)CN(C)C)CCC2,"inconclusive: 46.1 µM [inhibitor, partial curve, poor fit]"
18,COc1cc(Nc2nccc(-c3cnn4ncccc34)n2)cc(OC)c1,inactive
19,O=C(OC1CNC(C#Cc2cc3ncnc(Nc4ccc(Cc5ccccc5)cc4)c3s2)C1)N1CCOCC1 (stereo not drawn),"inconclusive: 23.1 µM [inhibitor, partial curve]"
